Measured values from publication PMC5655446.
These are yes or no findings as the source states them, for the method shown.

Chains of the proteins cited; added tags and fusions are not shown. Residues count along the entry.
UniProt A5F5Y3, residues 18-334: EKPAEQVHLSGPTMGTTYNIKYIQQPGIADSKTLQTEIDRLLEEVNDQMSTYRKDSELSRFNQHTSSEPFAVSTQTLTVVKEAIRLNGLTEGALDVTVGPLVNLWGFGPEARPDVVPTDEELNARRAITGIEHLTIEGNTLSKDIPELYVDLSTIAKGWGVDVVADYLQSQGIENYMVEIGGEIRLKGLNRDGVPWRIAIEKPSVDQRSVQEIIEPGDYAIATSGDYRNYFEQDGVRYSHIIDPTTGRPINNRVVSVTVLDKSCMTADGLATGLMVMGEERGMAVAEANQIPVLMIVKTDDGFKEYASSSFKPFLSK

Target: Vibrio cholerae ApbE (alternative pyrimidine biosynthesis protein), recombinant, without the leader sequence (Vibrio cholerae) (UniProt A5F5Y3)
Assay: SEC; each protein run alone on HiLoad 16/600 Superdex 200 pg; 150 mM NaCl, 10 mM HEPES, pH 8.0; both purified

Vibrio cholerae ApbE (alternative pyrimidine biosynthesis protein), recombinant, without the leader sequence (from UniProt A5F5Y3 18-334) (enzyme)
binding: no binding
